Experimental data reported in paper PMC7995658.
Results are given in words; binding and its absence hold for the method and conditions named. In cells and extracts the contact can be indirect. Some entries that bind do so weakly or less than the wild type.

By UniProt entry, the sequences of proteins in these tests, tags left out.
UniProt Q8R4B8: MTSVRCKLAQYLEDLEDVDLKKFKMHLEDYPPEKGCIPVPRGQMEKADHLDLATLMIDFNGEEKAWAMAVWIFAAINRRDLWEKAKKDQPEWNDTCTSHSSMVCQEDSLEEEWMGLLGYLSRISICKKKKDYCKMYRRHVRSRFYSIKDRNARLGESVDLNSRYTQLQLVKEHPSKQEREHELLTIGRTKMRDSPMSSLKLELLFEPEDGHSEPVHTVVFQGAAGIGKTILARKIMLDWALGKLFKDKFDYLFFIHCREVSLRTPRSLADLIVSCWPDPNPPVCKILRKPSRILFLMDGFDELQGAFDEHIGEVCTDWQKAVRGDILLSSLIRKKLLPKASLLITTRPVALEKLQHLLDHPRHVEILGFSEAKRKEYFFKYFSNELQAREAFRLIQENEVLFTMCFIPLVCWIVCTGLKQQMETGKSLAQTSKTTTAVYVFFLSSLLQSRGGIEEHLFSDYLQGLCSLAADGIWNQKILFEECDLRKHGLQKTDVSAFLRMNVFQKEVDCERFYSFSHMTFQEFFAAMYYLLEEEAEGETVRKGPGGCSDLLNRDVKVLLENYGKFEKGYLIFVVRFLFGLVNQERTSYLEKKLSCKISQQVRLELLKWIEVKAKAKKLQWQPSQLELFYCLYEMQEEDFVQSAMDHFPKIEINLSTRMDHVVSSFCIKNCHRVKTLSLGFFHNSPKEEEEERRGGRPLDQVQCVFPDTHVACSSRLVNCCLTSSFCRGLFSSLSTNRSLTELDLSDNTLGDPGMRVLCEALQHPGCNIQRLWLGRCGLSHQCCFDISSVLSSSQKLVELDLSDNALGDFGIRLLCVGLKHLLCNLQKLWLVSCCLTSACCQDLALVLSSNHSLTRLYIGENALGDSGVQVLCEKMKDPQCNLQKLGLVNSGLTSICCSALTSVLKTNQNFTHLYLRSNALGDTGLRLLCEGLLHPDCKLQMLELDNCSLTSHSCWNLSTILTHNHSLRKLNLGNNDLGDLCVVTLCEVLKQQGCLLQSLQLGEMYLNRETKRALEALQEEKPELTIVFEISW

Target: T1, caspase-1 (mouse (endogenous in J774.1)) (UniProt P29452)
T1 sequence: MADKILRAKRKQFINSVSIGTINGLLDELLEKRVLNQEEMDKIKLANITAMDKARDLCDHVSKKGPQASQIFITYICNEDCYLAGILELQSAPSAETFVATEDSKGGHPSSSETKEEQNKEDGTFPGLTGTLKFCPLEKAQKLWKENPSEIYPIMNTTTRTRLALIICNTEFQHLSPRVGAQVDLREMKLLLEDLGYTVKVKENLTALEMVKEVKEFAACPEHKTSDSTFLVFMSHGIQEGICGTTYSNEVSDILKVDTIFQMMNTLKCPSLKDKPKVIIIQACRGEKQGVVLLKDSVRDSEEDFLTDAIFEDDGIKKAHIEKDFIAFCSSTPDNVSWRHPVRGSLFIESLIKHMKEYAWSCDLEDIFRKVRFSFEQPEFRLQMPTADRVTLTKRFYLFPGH
Test: co-IP; J774.1 cells primed with LPS (100 ng/mL, 5 h), then ATP (5 mM) with or without GSH (5 mM) or GSSG (5 mM) for 1.5 h; lysates in pull-down buffer (50 mM Hepes-NaOH pH 7.5, 15 mM NaCl, 1 mM EGTA, 150 mM MgCl2, 10% glycerol, 1% Triton X-100) precipitated overnight with anti-NLRP3 or anti-caspase-1 (p20) antibody and protein G agarose at 4 °C; Western blotting

binding: binds
Substance: nod-like receptor protein 3 (from UniProt Q8R4B8 1-1033)
